The supplement of paper PMC12823440, “Inhibitors supercharge kinase turnover through native proteolytic circuits” (Nature, 2025)
Some of the results follow. The calls rarely recur for the same compound in another form.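 Kinases were expressed as nanoluciferase fusions in K562 cells and luminescence was read every 4 h between 2 and 18 h as percent of control, DMSO set to 100% and a positive control to 0%. A time point counts as decreased when the signal drops significantly (2 sigma). The hit call is the authors' own, does not follow from the count of time points alone, and its rule is not shown.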

Chains of the proteins cited; added tags and fusions are not shown. Lines headed by an entry give the natural chain unless they say otherwise; changes in a name come on top.
UniProt P07949, whole entry, looked up: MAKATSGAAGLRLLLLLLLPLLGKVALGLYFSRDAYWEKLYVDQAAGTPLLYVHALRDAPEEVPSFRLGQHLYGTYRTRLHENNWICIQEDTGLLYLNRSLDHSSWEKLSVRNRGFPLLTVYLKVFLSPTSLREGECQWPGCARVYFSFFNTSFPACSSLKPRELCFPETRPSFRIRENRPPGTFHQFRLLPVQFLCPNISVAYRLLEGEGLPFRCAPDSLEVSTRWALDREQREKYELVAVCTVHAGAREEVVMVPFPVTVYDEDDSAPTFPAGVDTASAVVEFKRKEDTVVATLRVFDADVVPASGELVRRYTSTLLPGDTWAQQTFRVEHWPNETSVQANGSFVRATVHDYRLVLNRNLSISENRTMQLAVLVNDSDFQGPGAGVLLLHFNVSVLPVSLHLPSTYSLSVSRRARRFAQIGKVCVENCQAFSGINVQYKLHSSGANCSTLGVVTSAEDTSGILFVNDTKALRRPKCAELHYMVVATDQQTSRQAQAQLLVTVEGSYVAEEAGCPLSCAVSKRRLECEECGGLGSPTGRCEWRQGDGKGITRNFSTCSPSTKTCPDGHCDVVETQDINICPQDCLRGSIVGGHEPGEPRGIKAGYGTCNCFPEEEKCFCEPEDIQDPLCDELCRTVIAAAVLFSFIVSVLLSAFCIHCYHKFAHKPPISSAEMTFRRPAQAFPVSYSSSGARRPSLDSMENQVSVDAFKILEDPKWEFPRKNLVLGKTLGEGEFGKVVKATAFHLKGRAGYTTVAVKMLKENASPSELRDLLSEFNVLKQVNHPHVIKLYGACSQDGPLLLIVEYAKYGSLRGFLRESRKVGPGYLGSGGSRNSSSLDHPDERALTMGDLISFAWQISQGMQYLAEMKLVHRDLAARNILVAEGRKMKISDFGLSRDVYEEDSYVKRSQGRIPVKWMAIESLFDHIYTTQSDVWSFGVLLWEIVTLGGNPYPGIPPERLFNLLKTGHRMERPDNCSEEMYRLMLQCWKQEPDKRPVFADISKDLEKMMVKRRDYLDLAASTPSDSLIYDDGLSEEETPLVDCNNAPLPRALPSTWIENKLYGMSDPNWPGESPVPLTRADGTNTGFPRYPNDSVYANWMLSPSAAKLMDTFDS
UniProt P07949, whole entry M918T, looked up: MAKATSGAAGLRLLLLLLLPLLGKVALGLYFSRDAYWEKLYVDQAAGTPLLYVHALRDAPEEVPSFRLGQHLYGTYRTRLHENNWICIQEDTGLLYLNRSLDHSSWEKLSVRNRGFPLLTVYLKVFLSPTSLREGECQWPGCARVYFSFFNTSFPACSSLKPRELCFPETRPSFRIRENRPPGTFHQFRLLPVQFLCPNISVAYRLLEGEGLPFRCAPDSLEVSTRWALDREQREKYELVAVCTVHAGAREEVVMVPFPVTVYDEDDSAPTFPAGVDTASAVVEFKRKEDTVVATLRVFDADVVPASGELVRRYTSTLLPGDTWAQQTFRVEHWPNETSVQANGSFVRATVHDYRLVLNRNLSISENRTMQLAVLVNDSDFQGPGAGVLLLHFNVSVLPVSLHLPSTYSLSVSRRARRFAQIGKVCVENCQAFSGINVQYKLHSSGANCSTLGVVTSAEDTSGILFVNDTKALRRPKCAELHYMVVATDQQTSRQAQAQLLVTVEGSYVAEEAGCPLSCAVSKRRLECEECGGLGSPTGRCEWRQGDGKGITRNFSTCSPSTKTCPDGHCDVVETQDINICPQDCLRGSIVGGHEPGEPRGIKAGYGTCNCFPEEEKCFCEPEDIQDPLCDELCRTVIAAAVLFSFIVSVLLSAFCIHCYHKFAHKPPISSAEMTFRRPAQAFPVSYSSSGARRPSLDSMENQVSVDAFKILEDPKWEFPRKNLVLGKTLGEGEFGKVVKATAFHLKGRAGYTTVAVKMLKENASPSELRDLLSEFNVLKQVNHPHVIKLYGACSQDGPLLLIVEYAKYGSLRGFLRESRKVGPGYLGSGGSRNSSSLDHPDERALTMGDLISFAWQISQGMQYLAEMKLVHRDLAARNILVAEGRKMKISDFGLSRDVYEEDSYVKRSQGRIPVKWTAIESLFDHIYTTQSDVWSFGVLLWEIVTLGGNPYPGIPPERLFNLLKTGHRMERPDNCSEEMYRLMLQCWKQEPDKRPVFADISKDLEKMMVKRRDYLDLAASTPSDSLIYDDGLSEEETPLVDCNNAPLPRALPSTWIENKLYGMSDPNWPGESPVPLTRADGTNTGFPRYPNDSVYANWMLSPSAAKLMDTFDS
UniProt Q9BRS2: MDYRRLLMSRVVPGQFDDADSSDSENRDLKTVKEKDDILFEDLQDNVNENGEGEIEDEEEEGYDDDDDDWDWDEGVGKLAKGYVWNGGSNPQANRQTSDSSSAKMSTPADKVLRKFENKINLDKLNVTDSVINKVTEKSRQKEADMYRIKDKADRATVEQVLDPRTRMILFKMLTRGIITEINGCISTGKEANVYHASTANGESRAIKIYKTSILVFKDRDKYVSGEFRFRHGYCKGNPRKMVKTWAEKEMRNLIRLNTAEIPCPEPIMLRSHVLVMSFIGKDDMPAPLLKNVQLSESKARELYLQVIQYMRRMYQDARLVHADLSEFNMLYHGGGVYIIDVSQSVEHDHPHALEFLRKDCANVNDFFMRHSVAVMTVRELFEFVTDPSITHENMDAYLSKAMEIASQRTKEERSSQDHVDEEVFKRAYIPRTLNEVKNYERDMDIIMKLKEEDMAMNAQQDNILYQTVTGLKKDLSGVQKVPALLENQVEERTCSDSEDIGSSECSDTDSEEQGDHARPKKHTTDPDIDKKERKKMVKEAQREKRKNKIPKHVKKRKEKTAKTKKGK
UniProt Q13546: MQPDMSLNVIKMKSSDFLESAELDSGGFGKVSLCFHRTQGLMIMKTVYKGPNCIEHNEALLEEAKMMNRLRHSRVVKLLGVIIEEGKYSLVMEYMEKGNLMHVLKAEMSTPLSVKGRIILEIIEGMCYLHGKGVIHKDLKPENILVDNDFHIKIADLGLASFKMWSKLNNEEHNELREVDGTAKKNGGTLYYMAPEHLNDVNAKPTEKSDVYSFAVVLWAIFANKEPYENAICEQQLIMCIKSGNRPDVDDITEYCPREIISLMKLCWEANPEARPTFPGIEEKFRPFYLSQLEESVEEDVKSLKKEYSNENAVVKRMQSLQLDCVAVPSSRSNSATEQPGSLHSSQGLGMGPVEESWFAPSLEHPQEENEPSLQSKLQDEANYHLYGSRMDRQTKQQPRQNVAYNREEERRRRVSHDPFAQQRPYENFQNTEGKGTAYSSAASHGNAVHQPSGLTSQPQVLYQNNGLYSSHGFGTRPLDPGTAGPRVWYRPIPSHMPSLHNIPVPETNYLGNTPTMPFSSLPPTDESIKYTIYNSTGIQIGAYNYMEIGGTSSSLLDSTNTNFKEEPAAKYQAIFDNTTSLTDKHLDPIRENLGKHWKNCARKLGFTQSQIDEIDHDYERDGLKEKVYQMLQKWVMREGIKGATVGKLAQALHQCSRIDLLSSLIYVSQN
UniProt Q9NYA1, whole entry: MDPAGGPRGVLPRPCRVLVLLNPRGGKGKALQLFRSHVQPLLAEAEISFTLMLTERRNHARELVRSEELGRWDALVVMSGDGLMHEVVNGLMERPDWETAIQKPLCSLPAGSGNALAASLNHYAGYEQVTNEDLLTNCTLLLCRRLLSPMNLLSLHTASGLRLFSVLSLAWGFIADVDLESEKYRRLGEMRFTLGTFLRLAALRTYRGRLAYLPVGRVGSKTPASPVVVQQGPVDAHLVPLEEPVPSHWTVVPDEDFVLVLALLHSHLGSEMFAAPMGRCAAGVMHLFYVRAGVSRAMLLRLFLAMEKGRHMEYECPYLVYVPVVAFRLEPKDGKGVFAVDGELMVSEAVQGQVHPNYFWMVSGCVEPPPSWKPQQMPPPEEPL
UniProt Q9Y6E0: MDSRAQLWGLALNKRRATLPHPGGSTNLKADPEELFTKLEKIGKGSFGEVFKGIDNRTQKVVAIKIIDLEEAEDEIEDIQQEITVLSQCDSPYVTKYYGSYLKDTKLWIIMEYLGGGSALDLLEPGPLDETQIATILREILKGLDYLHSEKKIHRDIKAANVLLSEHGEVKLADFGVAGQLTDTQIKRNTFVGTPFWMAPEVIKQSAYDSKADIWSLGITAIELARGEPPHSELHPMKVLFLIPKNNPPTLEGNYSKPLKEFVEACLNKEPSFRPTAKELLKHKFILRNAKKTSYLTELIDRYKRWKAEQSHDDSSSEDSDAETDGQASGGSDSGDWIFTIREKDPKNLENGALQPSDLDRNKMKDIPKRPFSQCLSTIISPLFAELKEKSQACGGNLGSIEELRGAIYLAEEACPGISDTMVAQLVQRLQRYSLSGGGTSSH
UniProt Q15208: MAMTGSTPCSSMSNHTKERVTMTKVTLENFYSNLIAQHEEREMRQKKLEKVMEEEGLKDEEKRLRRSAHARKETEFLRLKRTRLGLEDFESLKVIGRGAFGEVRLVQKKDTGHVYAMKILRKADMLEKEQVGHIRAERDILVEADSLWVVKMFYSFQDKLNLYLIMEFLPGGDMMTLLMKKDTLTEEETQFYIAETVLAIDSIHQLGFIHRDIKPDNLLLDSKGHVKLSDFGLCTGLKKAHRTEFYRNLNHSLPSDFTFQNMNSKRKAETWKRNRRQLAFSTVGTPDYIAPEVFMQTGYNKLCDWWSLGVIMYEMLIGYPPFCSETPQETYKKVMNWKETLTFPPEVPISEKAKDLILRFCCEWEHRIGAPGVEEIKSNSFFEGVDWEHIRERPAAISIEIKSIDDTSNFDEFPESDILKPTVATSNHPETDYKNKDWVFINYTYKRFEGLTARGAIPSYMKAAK
UniProt Q6PHR2: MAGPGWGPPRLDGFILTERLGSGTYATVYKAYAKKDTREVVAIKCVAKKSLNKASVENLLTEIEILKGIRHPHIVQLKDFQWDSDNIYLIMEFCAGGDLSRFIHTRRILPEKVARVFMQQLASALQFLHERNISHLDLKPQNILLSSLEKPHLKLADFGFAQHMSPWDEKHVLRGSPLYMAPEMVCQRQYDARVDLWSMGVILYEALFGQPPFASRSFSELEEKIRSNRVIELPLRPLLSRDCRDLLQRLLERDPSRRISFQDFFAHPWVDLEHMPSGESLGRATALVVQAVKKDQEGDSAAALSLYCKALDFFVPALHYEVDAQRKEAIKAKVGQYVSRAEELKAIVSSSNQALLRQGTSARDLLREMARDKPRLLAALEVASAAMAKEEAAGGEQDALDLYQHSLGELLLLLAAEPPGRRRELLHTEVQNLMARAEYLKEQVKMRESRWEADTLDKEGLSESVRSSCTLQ
UniProt P43403: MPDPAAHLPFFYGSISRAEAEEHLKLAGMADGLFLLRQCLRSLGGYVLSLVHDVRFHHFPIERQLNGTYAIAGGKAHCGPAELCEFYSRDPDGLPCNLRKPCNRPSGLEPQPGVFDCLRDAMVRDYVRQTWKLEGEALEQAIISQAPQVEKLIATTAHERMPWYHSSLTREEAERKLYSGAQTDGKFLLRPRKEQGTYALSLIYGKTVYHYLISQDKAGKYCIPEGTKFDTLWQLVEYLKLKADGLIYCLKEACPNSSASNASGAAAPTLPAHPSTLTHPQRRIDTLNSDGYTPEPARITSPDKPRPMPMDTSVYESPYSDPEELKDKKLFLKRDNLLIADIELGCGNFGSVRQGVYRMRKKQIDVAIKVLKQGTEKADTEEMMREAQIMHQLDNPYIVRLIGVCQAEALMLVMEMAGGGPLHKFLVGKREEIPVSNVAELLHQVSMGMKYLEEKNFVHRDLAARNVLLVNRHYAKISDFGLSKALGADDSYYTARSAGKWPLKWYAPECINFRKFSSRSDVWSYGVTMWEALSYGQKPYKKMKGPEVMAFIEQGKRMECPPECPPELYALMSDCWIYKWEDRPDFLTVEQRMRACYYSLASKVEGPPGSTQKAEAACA
UniProt P11802: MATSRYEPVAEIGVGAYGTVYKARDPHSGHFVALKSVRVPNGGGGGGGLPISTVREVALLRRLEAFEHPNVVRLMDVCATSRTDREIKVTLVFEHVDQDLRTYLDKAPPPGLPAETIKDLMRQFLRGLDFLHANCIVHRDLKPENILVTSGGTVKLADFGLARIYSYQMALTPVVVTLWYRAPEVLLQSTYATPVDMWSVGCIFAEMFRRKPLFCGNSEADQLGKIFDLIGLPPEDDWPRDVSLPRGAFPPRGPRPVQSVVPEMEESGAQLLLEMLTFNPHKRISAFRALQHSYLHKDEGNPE
UniProt P50613: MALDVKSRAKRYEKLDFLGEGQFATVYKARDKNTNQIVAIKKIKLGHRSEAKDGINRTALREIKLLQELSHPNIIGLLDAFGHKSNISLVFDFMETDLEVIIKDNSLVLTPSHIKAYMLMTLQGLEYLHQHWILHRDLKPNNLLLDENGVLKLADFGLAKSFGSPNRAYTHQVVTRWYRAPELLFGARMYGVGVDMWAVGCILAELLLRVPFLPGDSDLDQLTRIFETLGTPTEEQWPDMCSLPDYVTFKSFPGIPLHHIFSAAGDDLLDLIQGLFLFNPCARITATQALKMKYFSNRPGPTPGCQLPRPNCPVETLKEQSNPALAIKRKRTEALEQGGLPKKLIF

Assays:
Details in all cases: K562, 2-18 h
[1] = biological target: RET (UniProt P07949); assay: kinase-Nluc reporter destabilization hit call (1 = scored as downregulated) (binary); higher = compound decreases kinase abundance
[2] = biological target: RET_M918T (clone: RET_mut) (UniProt P07949); assay: as above
[3] = biological target: RIOK1 (UniProt Q9BRS2); assay: as above
[4] = biological target: RIPK1 (UniProt Q13546); assay: as above
[5] = biological target: RIPK2 (UniProt O43353); assay: as above
[6] = biological target: ROR2 (UniProt Q01974); assay: as above
[7] = biological target: RPS6KA1 (UniProt Q15418); assay: as above
[8] = biological target: SPHK1 (UniProt Q9NYA1); assay: as above
[9] = biological target: SRC (UniProt P12931); assay: as above
[10] = biological target: STK24 (UniProt Q9Y6E0); assay: as above
[11] = biological target: STK38 (UniProt Q15208); assay: as above
[12] = biological target: SYK (UniProt P43405); assay: as above
[13] = biological target: TEC (UniProt P42680); assay: as above
[14] = biological target: TYK2 (UniProt P29597); assay: as above
[15] = biological target: ULK3 (UniProt Q6PHR2); assay: as above
[16] = biological target: YES1 (UniProt P07947); assay: as above
[17] = biological target: ZAK (UniProt Q9NYL2); assay: as above
[18] = biological target: ZAP70 (UniProt P43403); assay: as above
[19] = biological target: CDK4 (UniProt P11802); assay: number of time points (of 4; 2 h point missing) at which kinase-Nluc abundance scored as decreased, DMSO-normalised (count); higher = more persistent destabilization
[20] = biological target: CDK7 (UniProt P50613); assay: as above

C[C@@H]1O[C@@H](Oc2c(-c3ccc(O)c(O)c3)oc3cc(O)cc(O)c3c2=O)[C@H](O)[C@H](O)[C@H]1O [Quercitrin]
inactive: kinase-Nluc reporter destabilization hit call ([1]; 10 µM) 0 | kinase-Nluc reporter destabilization hit call ([2]; 10 µM) 0 | kinase-Nluc reporter destabilization hit call ([3]; 10 µM) 0 | kinase-Nluc reporter destabilization hit call ([4]; 10 µM) 0 | kinase-Nluc reporter destabilization hit call ([5]; 10 µM) 0 | kinase-Nluc reporter destabilization hit call ([6]; 10 µM) 0 | kinase-Nluc reporter destabilization hit call ([7]; 10 µM) 0 | kinase-Nluc reporter destabilization hit call ([8]; 10 µM) 0 | kinase-Nluc reporter destabilization hit call ([9]; 10 µM) 0 | kinase-Nluc reporter destabilization hit call ([10]; 10 µM) 0 | kinase-Nluc reporter destabilization hit call ([11]; 10 µM) 0 | kinase-Nluc reporter destabilization hit call ([12]; 10 µM) 0 | kinase-Nluc reporter destabilization hit call ([13]; 10 µM) 0 | kinase-Nluc reporter destabilization hit call ([14]; 10 µM) 0 | kinase-Nluc reporter destabilization hit call ([15]; 10 µM) 0 | kinase-Nluc reporter destabilization hit call ([16]; 10 µM) 0 | kinase-Nluc reporter destabilization hit call ([17]; 10 µM) 0 | kinase-Nluc reporter destabilization hit call ([18]; 10 µM) 0
0: number of time points ([19]; 10 µM) | number of time points ([20]; 10 µM)

C=CC(=O)Nc1cc2c(Nc3ccc(F)c(Cl)c3)ncnc2cc1OCCCN1CCOCC1 [Canertinib]
inactive: kinase-Nluc reporter destabilization hit call ([1]; 10 µM) 0 | kinase-Nluc reporter destabilization hit call ([2]; 10 µM) 0 | kinase-Nluc reporter destabilization hit call ([3]; 10 µM) 0 | kinase-Nluc reporter destabilization hit call ([4]; 10 µM) 0 | kinase-Nluc reporter destabilization hit call ([5]; 10 µM) 0 | kinase-Nluc reporter destabilization hit call ([6]; 10 µM) 0 | kinase-Nluc reporter destabilization hit call ([7]; 10 µM) 0 | kinase-Nluc reporter destabilization hit call ([8]; 10 µM) 0 | kinase-Nluc reporter destabilization hit call ([9]; 10 µM) 0 | kinase-Nluc reporter destabilization hit call ([10]; 10 µM) 0 | kinase-Nluc reporter destabilization hit call ([11]; 10 µM) 0 | kinase-Nluc reporter destabilization hit call ([12]; 10 µM) 0 | kinase-Nluc reporter destabilization hit call ([13]; 10 µM) 0 | kinase-Nluc reporter destabilization hit call ([14]; 10 µM) 0 | kinase-Nluc reporter destabilization hit call ([15]; 10 µM) 0 | kinase-Nluc reporter destabilization hit call ([16]; 10 µM) 0 | kinase-Nluc reporter destabilization hit call ([17]; 10 µM) 0 | kinase-Nluc reporter destabilization hit call ([18]; 10 µM) 0
0: number of time points ([19]; 10 µM) | number of time points ([20]; 10 µM)

COc1nccc(-c2c(-c3ccc(F)cc3)ncn2C2CCNCC2)n1
0: number of time points ([19]; 10 µM) | number of time points ([20]; 10 µM)
inactive: kinase-Nluc reporter destabilization hit call ([1]; 10 µM) 0 | kinase-Nluc reporter destabilization hit call ([2]; 10 µM) 0 | kinase-Nluc reporter destabilization hit call ([3]; 10 µM) 0 | kinase-Nluc reporter destabilization hit call ([4]; 10 µM) 0 | kinase-Nluc reporter destabilization hit call ([5]; 10 µM) 0 | kinase-Nluc reporter destabilization hit call ([6]; 10 µM) 0 | kinase-Nluc reporter destabilization hit call ([7]; 10 µM) 0 | kinase-Nluc reporter destabilization hit call ([8]; 10 µM) 0 | kinase-Nluc reporter destabilization hit call ([9]; 10 µM) 0 | kinase-Nluc reporter destabilization hit call ([10]; 10 µM) 0 | kinase-Nluc reporter destabilization hit call ([11]; 10 µM) 0 | kinase-Nluc reporter destabilization hit call ([12]; 10 µM) 0 | kinase-Nluc reporter destabilization hit call ([13]; 10 µM) 0 | kinase-Nluc reporter destabilization hit call ([14]; 10 µM) 0 | kinase-Nluc reporter destabilization hit call ([15]; 10 µM) 0 | kinase-Nluc reporter destabilization hit call ([16]; 10 µM) 0 | kinase-Nluc reporter destabilization hit call ([18]; 10 µM) 0

Cc1cc(C)n2c1C=C1C=CC(CCC(=O)NCCN3CCN(C/C=C/C(=O)N4CCCC(n5nc(-c6ccc(Oc7ccccc7)cc6)c6c(N)ncnc65)C4)CC3)=[N+]1[B-]2(F)F (centres undefined)
0: number of time points ([19]; 2.5 µM) | number of time points ([20]; 2.5 µM)
inactive: kinase-Nluc reporter destabilization hit call ([1]; 2.5 µM) 0 | kinase-Nluc reporter destabilization hit call ([3]; 2.5 µM) 0 | kinase-Nluc reporter destabilization hit call ([4]; 2.5 µM) 0 | kinase-Nluc reporter destabilization hit call ([5]; 2.5 µM) 0 | kinase-Nluc reporter destabilization hit call ([6]; 2.5 µM) 0 | kinase-Nluc reporter destabilization hit call ([7]; 2.5 µM) 0 | kinase-Nluc reporter destabilization hit call ([8]; 2.5 µM) 0 | kinase-Nluc reporter destabilization hit call ([9]; 2.5 µM) 0 | kinase-Nluc reporter destabilization hit call ([10]; 2.5 µM) 0 | kinase-Nluc reporter destabilization hit call ([11]; 2.5 µM) 0 | kinase-Nluc reporter destabilization hit call ([12]; 2.5 µM) 0 | kinase-Nluc reporter destabilization hit call ([13]; 2.5 µM) 0 | kinase-Nluc reporter destabilization hit call ([14]; 2.5 µM) 0 | kinase-Nluc reporter destabilization hit call ([15]; 2.5 µM) 0 | kinase-Nluc reporter destabilization hit call ([16]; 2.5 µM) 0 | kinase-Nluc reporter destabilization hit call ([17]; 2.5 µM) 0 | kinase-Nluc reporter destabilization hit call ([18]; 2.5 µM) 0

Cc1nc(Nc2ncc(C(=O)Nc3c(C)cccc3Cl)s2)cc(N2CCN(CCO)CC2)n1 [Dasatinib]
inactive: kinase-Nluc reporter destabilization hit call ([1]; 2.5 µM) 0 | kinase-Nluc reporter destabilization hit call ([2]; 2.5 µM) 0 | kinase-Nluc reporter destabilization hit call ([3]; 2.5 µM) 0 | kinase-Nluc reporter destabilization hit call ([4]; 2.5 µM) 0 | kinase-Nluc reporter destabilization hit call ([5]; 2.5 µM) 0 | kinase-Nluc reporter destabilization hit call ([6]; 2.5 µM) 0 | kinase-Nluc reporter destabilization hit call ([7]; 2.5 µM) 0 | kinase-Nluc reporter destabilization hit call ([8]; 2.5 µM) 0 | kinase-Nluc reporter destabilization hit call ([10]; 2.5 µM) 0 | kinase-Nluc reporter destabilization hit call ([11]; 2.5 µM) 0 | kinase-Nluc reporter destabilization hit call ([12]; 2.5 µM) 0 | kinase-Nluc reporter destabilization hit call ([13]; 2.5 µM) 0 | kinase-Nluc reporter destabilization hit call ([14]; 2.5 µM) 0 | kinase-Nluc reporter destabilization hit call ([15]; 2.5 µM) 0 | kinase-Nluc reporter destabilization hit call ([16]; 2.5 µM) 0 | kinase-Nluc reporter destabilization hit call ([17]; 2.5 µM) 0 | kinase-Nluc reporter destabilization hit call ([18]; 2.5 µM) 0
2: number of time points ([20]; 2.5 µM)
0: number of time points ([19]; 2.5 µM)

COc1cc2ncnc(Nc3ccc(F)c(Cl)c3)c2cc1OCCCN1CCOCC1 [Gefitinib]
active: kinase-Nluc reporter destabilization hit call ([14]; 10 µM) 1
0: number of time points ([19]; 10 µM) | number of time points ([20]; 10 µM)
inactive: kinase-Nluc reporter destabilization hit call ([2]; 10 µM) 0 | kinase-Nluc reporter destabilization hit call ([3]; 10 µM) 0 | kinase-Nluc reporter destabilization hit call ([4]; 10 µM) 0 | kinase-Nluc reporter destabilization hit call ([6]; 10 µM) 0 | kinase-Nluc reporter destabilization hit call ([7]; 10 µM) 0 | kinase-Nluc reporter destabilization hit call ([8]; 10 µM) 0 | kinase-Nluc reporter destabilization hit call ([10]; 10 µM) 0 | kinase-Nluc reporter destabilization hit call ([11]; 10 µM) 0 | kinase-Nluc reporter destabilization hit call ([12]; 10 µM) 0 | kinase-Nluc reporter destabilization hit call ([13]; 10 µM) 0 | kinase-Nluc reporter destabilization hit call ([15]; 10 µM) 0 | kinase-Nluc reporter destabilization hit call ([16]; 10 µM) 0 | kinase-Nluc reporter destabilization hit call ([17]; 10 µM) 0 | kinase-Nluc reporter destabilization hit call ([18]; 10 µM) 0

CC[C@@H]1C(=O)N(C)c2cnc(Nc3ccc(C(=O)NC4CCN(C)CC4)cc3OC)nc2N1C1CCCC1
inactive: kinase-Nluc reporter destabilization hit call ([1]; 10 µM) 0 | kinase-Nluc reporter destabilization hit call ([2]; 10 µM) 0 | kinase-Nluc reporter destabilization hit call ([3]; 10 µM) 0 | kinase-Nluc reporter destabilization hit call ([4]; 10 µM) 0 | kinase-Nluc reporter destabilization hit call ([5]; 10 µM) 0 | kinase-Nluc reporter destabilization hit call ([6]; 10 µM) 0 | kinase-Nluc reporter destabilization hit call ([7]; 10 µM) 0 | kinase-Nluc reporter destabilization hit call ([8]; 10 µM) 0 | kinase-Nluc reporter destabilization hit call ([9]; 10 µM) 0 | kinase-Nluc reporter destabilization hit call ([10]; 10 µM) 0 | kinase-Nluc reporter destabilization hit call ([11]; 10 µM) 0 | kinase-Nluc reporter destabilization hit call ([13]; 10 µM) 0 | kinase-Nluc reporter destabilization hit call ([14]; 10 µM) 0 | kinase-Nluc reporter destabilization hit call ([15]; 10 µM) 0 | kinase-Nluc reporter destabilization hit call ([16]; 10 µM) 0 | kinase-Nluc reporter destabilization hit call ([17]; 10 µM) 0 | kinase-Nluc reporter destabilization hit call ([18]; 10 µM) 0
0: number of time points ([19]; 10 µM) | number of time points ([20]; 10 µM)

Cn1cc(/C=C2\C(=O)Nc3cccnc32)c2ccccc21
0: number of time points ([19]; 10 µM) | number of time points ([20]; 10 µM)
inactive: kinase-Nluc reporter destabilization hit call ([3]; 10 µM) 0 | kinase-Nluc reporter destabilization hit call ([6]; 10 µM) 0 | kinase-Nluc reporter destabilization hit call ([7]; 10 µM) 0 | kinase-Nluc reporter destabilization hit call ([8]; 10 µM) 0 | kinase-Nluc reporter destabilization hit call ([9]; 10 µM) 0 | kinase-Nluc reporter destabilization hit call ([10]; 10 µM) 0 | kinase-Nluc reporter destabilization hit call ([11]; 10 µM) 0 | kinase-Nluc reporter destabilization hit call ([12]; 10 µM) 0 | kinase-Nluc reporter destabilization hit call ([13]; 10 µM) 0 | kinase-Nluc reporter destabilization hit call ([14]; 10 µM) 0 | kinase-Nluc reporter destabilization hit call ([15]; 10 µM) 0 | kinase-Nluc reporter destabilization hit call ([16]; 10 µM) 0

Cc1cc(Nc2cc(N3CCN(C)CC3)nc(/C=C/c3ccccc3)n2)n[nH]1
inactive: kinase-Nluc reporter destabilization hit call ([1]; 2.5 µM) 0 | kinase-Nluc reporter destabilization hit call ([2]; 2.5 µM) 0 | kinase-Nluc reporter destabilization hit call ([3]; 2.5 µM) 0 | kinase-Nluc reporter destabilization hit call ([4]; 2.5 µM) 0 | kinase-Nluc reporter destabilization hit call ([5]; 2.5 µM) 0 | kinase-Nluc reporter destabilization hit call ([6]; 2.5 µM) 0 | kinase-Nluc reporter destabilization hit call ([7]; 2.5 µM) 0 | kinase-Nluc reporter destabilization hit call ([8]; 2.5 µM) 0 | kinase-Nluc reporter destabilization hit call ([9]; 2.5 µM) 0 | kinase-Nluc reporter destabilization hit call ([10]; 2.5 µM) 0 | kinase-Nluc reporter destabilization hit call ([11]; 2.5 µM) 0 | kinase-Nluc reporter destabilization hit call ([13]; 2.5 µM) 0 | kinase-Nluc reporter destabilization hit call ([14]; 2.5 µM) 0 | kinase-Nluc reporter destabilization hit call ([15]; 2.5 µM) 0 | kinase-Nluc reporter destabilization hit call ([16]; 2.5 µM) 0 | kinase-Nluc reporter destabilization hit call ([17]; 2.5 µM) 0 | kinase-Nluc reporter destabilization hit call ([18]; 2.5 µM) 0
0: number of time points ([19]; 2.5 µM) | number of time points ([20]; 2.5 µM)

CN1CCN(c2ccc3nc(-c4c(N)c5c(F)cccc5[nH]c4=O)[nH]c3c2)CC1 [Dovitinib]
0: number of time points ([19]; 2.5 µM) | number of time points ([20]; 2.5 µM)
inactive: kinase-Nluc reporter destabilization hit call ([3]; 2.5 µM) 0 | kinase-Nluc reporter destabilization hit call ([4]; 2.5 µM) 0 | kinase-Nluc reporter destabilization hit call ([5]; 2.5 µM) 0 | kinase-Nluc reporter destabilization hit call ([6]; 2.5 µM) 0 | kinase-Nluc reporter destabilization hit call ([7]; 2.5 µM) 0 | kinase-Nluc reporter destabilization hit call ([8]; 2.5 µM) 0 | kinase-Nluc reporter destabilization hit call ([9]; 2.5 µM) 0 | kinase-Nluc reporter destabilization hit call ([10]; 2.5 µM) 0 | kinase-Nluc reporter destabilization hit call ([11]; 2.5 µM) 0 | kinase-Nluc reporter destabilization hit call ([12]; 2.5 µM) 0 | kinase-Nluc reporter destabilization hit call ([13]; 2.5 µM) 0 | kinase-Nluc reporter destabilization hit call ([14]; 2.5 µM) 0 | kinase-Nluc reporter destabilization hit call ([15]; 2.5 µM) 0 | kinase-Nluc reporter destabilization hit call ([16]; 2.5 µM) 0 | kinase-Nluc reporter destabilization hit call ([17]; 2.5 µM) 0 | kinase-Nluc reporter destabilization hit call ([18]; 2.5 µM) 0
